# Experimental data: PubChem BioAssay AID504444 (National Center for Advancing Translational Sciences (NCATS), 2011)
# “And” between values parts separate entries of the source, which are not always exact repeats. Identical values can stand only once. Hit rate of the full screen: of about 360,000 compounds, about 7,500 (2.1%) were called active. This list was built around the results that the source calls inconclusive (neither active nor inactive); the mix of calls is not that of the screen. Calls come from the whole dose curve; as a rule, active = well fitted inhibition curve with a large enough effect; inconclusive = small, poorly fitted or top-dose-only effect, or effect the other way; inactive = flat fitted curve, though single readings scatter. Potencies beside an inconclusive call are fits to weak or partial responses and may not hold up.
# Test: Nrf2 qHTS screen for inhibitors; note: nearly all actives have a fitted effect of over 60% in size
# Conditions: A549 ARE-Fluc reporter, luciferase luminescence, 18-24 h; series mostly up to 46 µM
# Method in brief: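 Concentration-response testing used A549 ARE_Fluc cells at 5000 cells/well. Following an 18-24 h compound incubation, viability was read by fluorescence (Ex 405/Em 525) and luciferase output by luminescence.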
# Potency is the fitted concentration of half-maximal effect.
row,Compound,Potency
1,Cc1ccc(Cl)cc1N1CCN(C(=O)c2ccc(CN3CCOCC3)cc2)CC1,"inconclusive: 32.6 µM [falling, single point]"
2,CC(C)NC(=O)c1ccc(-n2c(-c3ccccc3)cc3c2CCCC3)cc1,inactive
3,Cc1ccc(-c2nc(Nc3ccc(N4CCOCC4)cc3)c3ccccc3n2)cc1,"inconclusive: 32.6 µM [falling, single point]"
4,CC(C)N(C(=O)[C@H]1C[C@H](CC(=O)NCc2ccco2)C(=O)N2CCc3c([nH]c4cc(-c5ccco5)ccc34)[C@]12C)C(C)C,active: 14.6 µM
5,COC(=O)C(NNc1ccc(F)cc1)(NC(=O)c1ccccc1)C(F)(F)F (stereo unspecified),active: 23.1 µM
6,O=C1C(Br)=C(c2ccccc2)C(c2ccccc2)=C1c1ccccc1,inactive
7,O=C(CCl)NCCCN(C(=O)C(Cl)Cl)c1ccc([N+](=O)[O-])cc1,"inconclusive: 16.4 µM [falling, single point]"
8,CC(/C=N/n1c(-c2ccncc2)n[nH]c1=S)=C\c1ccco1,inactive
9,COc1ccc(NC(=O)c2c(NC(=O)CNCc3ccco3)sc3c2CCC3)c(OC)c1,"inconclusive: 4.11 µM [falling, partial curve, poor fit]"
10,O=S(=O)(NC1CCc2ccccc21)c1ccc(S(=O)(=O)N2CCCC2)cc1 (stereo unspecified),active: 4.11 µM
11,CCOC(=O)Cc1cc(=O)[nH]c(/N=C(\N)Nc2ccc(C)c(C)c2)n1,"inconclusive: 16.4 µM [falling, single point]"
12,COc1cccc2cc(C(=O)C3=C(O)C(=O)N(c4cc(C)on4)C3c3cccs3)oc12 (stereo unspecified),"inconclusive: 29.1 µM [falling, single point]"
13,Cc1ccc(C(=O)c2ccc([N+](=O)[O-])cc2)cc1,inactive
14,O=C(CSc1nc2ccc(Cl)cc2[nH]1)NC1CCCc2ccccc21 (stereo unspecified),"inconclusive: 25.9 µM [falling, single point]"
15,COc1ccc(OC)c(CNS(=O)(=O)c2ccc3[nH]c4c(c3c2)CCCCC4)c1,active: 16.4 µM
16,O=C(NCCc1csc(-c2ccccc2)n1)c1cccs1,inactive
17,O=C(CCSc1nc2ccccc2s1)N/N=C/c1c(O)ccc2ccccc12,inactive
18,CCC(=O)N1CCc2cc(S(=O)(=O)NC(CC(C)C)C(=O)NCCc3cccc(C)c3)ccc21 (stereo unspecified),"inconclusive: 23.1 µM [falling, single point]"
19,COC(=O)C1=C(C)NC(C)=C(C(=O)OCC(C)C)C1c1ccccc1[N+](=O)[O-] (stereo unspecified),active: 16.4 µM
20,COc1cccc(-c2cc(C(=O)N3CCCCC3C)no2)c1 (stereo unspecified),"inconclusive: 8.2 µM [activator, partial curve]"
21,Cc1c(CCO)c(=O)[nH]n1C(=O)c1ccc(F)cc1,"inconclusive: 0.517 µM [activator, full curve, poor fit]"
22,CCCCc1ccc(-n2nnnc2SCC(=O)Nc2cc(OC)c([N+](=O)[O-])cc2C)cc1,"inconclusive: 29.1 µM [falling, single point]"

row,Compound,Potency
1,CCOc1ccc(C2=Nn3c(nnc3-c3ccc(OC)cc3)SC2)cc1,"inconclusive: 11.6 µM [falling, partial curve, poor fit]"
2,CC(C)CCn1c(SCc2ccc(Cl)cc2)nc2c1c(=O)[nH]c(=O)n2C,"inconclusive: 16.4 µM [falling, partial curve, poor fit]"
3,CC12CCC=CC1C(c1ccc3ccccc3c1Br)N(Cc1ccccc1)C2=O (stereo unspecified),"inconclusive: 20.6 µM [falling, single point]"
4,CCOc1ccccc1NC(=O)CN(c1ccc(C)cc1)S(=O)(=O)c1c(C)noc1C,active: 16.4 µM
5,CC(C)Oc1cccc(C(=O)Nc2ccc3oc(-c4cccc(Cl)c4)nc3c2)c1,"inconclusive: 18.4 µM [falling, partial curve, poor fit]"
6,O=C(NCCNc1ccc([N+](=O)[O-])cc1Cl)c1ccccc1F,active: 16.4 µM
7,Cc1ccc(COC(=O)CCCN=C2NS(=O)(=O)c3ccccc32)cc1,"inconclusive: 16.4 µM [falling, partial curve, poor fit]"
8,O=C(c1ccc(CSc2ccc(Cl)cc2)cc1)N1CCOCC1,"inconclusive: 18.4 µM [falling, single point]"
9,COc1cc(/C=N/NC(=O)c2ccncc2)ccc1OC(=O)c1ccccc1Cl,"inconclusive: 5.8 µM [falling, partial curve, poor fit]"
10,CC(C)(C)c1ccc(Cn2c(=O)cnc3ccccc32)cc1,"inconclusive: 4.11 µM [activator, full curve]"
11,CCNc1ccc(-c2nc(-c3ccccn3)no2)cc1[N+](=O)[O-],inactive
12,COc1ccc(-c2onc(C)c2C)cc1S(=O)(=O)NCC(C)c1ccccc1 (stereo unspecified),"inconclusive: 18.4 µM [falling, partial curve, poor fit]"
13,C[C@@H](C(=O)Nc1ccc2c(c1)OCCO2)n1c(=O)[nH]c2ccccc2c1=O,"inconclusive: 1.03 µM [activator, partial curve]"
14,Cc1ccc(C)c(N2CCN(C(=O)CCCN3C(=S)NC(C)(C)CC3C)CC2)c1 (stereo unspecified),active: 16.4 µM
15,CCc1ccc(CNC(=O)CCCn2c(=O)c3cccn3c3cccnc32)cc1,"inconclusive: 23.1 µM [falling, single point]"
16,O=C(COC(=O)c1cc[n+]([O-])cc1)Nc1c(Cl)cccc1C(F)(F)F,inactive
17,Cc1cc(Nc2cccc(Cl)c2)c2ccccc2n1,active: 20.6 µM
18,O=C(Nc1ccn(CCCNCCCN2CCCC2=O)c(=O)n1)OCc1ccccc1,"inconclusive: 1.46 µM [activator, full curve]"
19,Cc1nn(CC(=O)c2ccc(Br)s2)c(C)c1[N+](=O)[O-],"inconclusive: 29.1 µM [falling, single point]"
20,Cc1ccc(-n2c(C)cc(C(=O)CSc3nncs3)c2C)cc1,"inconclusive: 18.4 µM [falling, single point]"
21,O=C(c1cc(-c2ccc(F)cc2)on1)N1CCOCC1,"inconclusive: 1.64 µM [activator, full curve]"
22,O=c1c2cnn(-c3ccc(F)cc3)c2ncn1Cc1cccc(Cl)c1,inactive

row,Compound,Potency
1,Cc1c(Cl)c([N+](=O)[O-])nn1CCCC(=O)N1CCN(c2ccccc2)CC1,inactive
2,COc1ccccc1/C=N/NC(=O)CN(C1=NS(=O)(=O)c2ccccc21)c1ccccc1,"inconclusive: 29.1 µM [falling, single point]"
3,CCc1ccc(C(=O)Nc2nc(C)cs2)s1,"inconclusive: 0.731 µM [activator, partial curve, poor fit]"
4,C=CCc1cccc(CNc2nc3ccccc3n2CCC)c1O,"inconclusive: 29.1 µM [falling, single point]"
5,COc1ccc(N2C(=O)c3ccccc3NC2c2ccc(OC)c(COc3ccccn3)c2)cc1 (stereo unspecified),"inconclusive: 10.3 µM [activator, partial curve] and inconclusive: 10.3 µM [activator, partial curve, poor fit]"
6,Nc1ncnc(Sc2ncccn2)c1[N+](=O)[O-],"inconclusive: 20.6 µM [falling, partial curve]"
7,CCCCSC1=C(C#N)C(c2ccccc2C)C(C(=O)OCC)C(=O)N1 (stereo unspecified),"inconclusive: 20.6 µM [falling, single point]"
8,CCCCN(CCCC)CC(O)Cn1c2ccccc2c(=O)c2ccccc21 (stereo unspecified),"inconclusive: 11.6 µM [activator, partial curve, poor fit]"
9,Cc1cc2c(s1)c1cnn(Cc3cccc(F)c3F)c(=O)c1n2C,inactive
10,O=C(Cc1ccc(Cl)cc1)NNS(=O)(=O)c1ccc([N+](=O)[O-])cc1,"inconclusive: 20.6 µM [falling, single point]"
11,COc1ccc(NC(=S)N(CCN(C)C)C(C)c2ccco2)cc1Cl (stereo unspecified),inactive
12,O=C(NC1CCN(Cc2ccccc2)CC1)c1cccc(S(=O)(=O)Nc2ccc(Br)cc2)c1,"inconclusive: 20.6 µM [falling, single point]"
13,Cc1cc(/C=C2\SC(=S)N(C)C2=O)c(C)n1-c1ccccc1O,"inconclusive: 32.6 µM [falling, single point]"
14,CSC1=NSC2=NC(=O)/C(=C\c3cccs3)C(=N)N12,"inconclusive: 29.1 µM [falling, single point]"
15,O=C(NCCOc1ccccc1)C(=O)NCC1CCCO1 (stereo unspecified),"inconclusive: 13 µM [activator, partial curve]"
16,COc1ccc(S(=O)(=O)N(C)c2ccc(C(=O)NCCC(C)C)cc2)cc1,"inconclusive: 16.4 µM [falling, single point]"
17,O=c1[nH]c(CSc2ccccn2)nc2ccccc12,"inconclusive: 4.11 µM [activator, partial curve]"
18,CC(C)C(NC(=O)OCc1ccccc1)C(=O)OCC(=O)N1C(C)CCCC1C (stereo unspecified),"inconclusive: 20.6 µM [activator, single point]"
19,CC(=O)NCc1ccc(-c2csc(-c3cccs3)n2)cc1,"inconclusive: 2.59 µM [activator, partial curve]"
20,CC(C)(C)c1ccc(-c2nc(C#N)c(N3CCC(C(N)=O)CC3)o2)cc1,"inconclusive: 32.6 µM [falling, single point]"
21,O=S(=O)(c1ccc(OCC(O)CN2CCCCC2)cc1)N1CCOCC1 (stereo unspecified),"inconclusive: 8.2 µM [activator, partial curve, poor fit]"
22,CCCS(=O)(=O)c1nc(S(=O)(=O)c2ccc(C)cc2)c(N2CCN(CCO)CC2)s1,"inconclusive: 6.51 µM [falling, single point]"
